# Primary screen of a compound library

Measurements from “University of Dundee, Small-Polar-MMV Screening Library” (2021), ChEMBL document CHEMBL3988442.

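Viability assay of Plasmodium falciparum sporozoites; the read-out is not stated. The concentration is filed as 10 mM, unlikely as a test dose, so the dose is not known. Higher reads as lower viability (inferred: compounds with an IC50 in retests scored well above the rest). Strong results were mostly tested again. Size under these conditions: about 34,000 compounds, about 280 of them at 50% or above in at least one test.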

Each number is a percent effect as filed. How 0% and 100% were set is not recorded. Most values in the screen are low, and negative values occur. The compounds are a random part of those screened. Two or more numbers in one place are separate tests of the same structure; such repeats can differ widely.

- Fc1ccccc1-c1nc(CNCCn2cccn2)cs1 | -31.22% & 34.67% & -39.45%
- CC(=O)N1CC=C(n2c(=O)[nH]c3ccccc32)CC1 | -2.51%
- CCCn1c(C)c(CC(=O)NC)c2c1CC(C)(C)CC2=O | -6.325%
- CC1CCN(C(=O)CSCc2nc(C3CC3)no2)CC1 | -8.546%
- CCN1CCCC1CN(CCN(C)C)S(=O)(=O)c1ccc(C#N)cc1 (configuration not stated) | -0.1181%
- [H][C@]12CC[C@](O)(CC1)C(CO)N2Cc1ccco1 (some centres not stated) | -35.69%
- CN(C)C(C(=O)N1CCCC1)c1ccccc1F (configuration not stated) | 3.359%
- O=C(O)C(F)(F)F.O=C(O)C(F)(F)F.[H][C@]12CCN(C(=O)c3cccs3)C[C@@]1([H])OCCN(CCN(C)C)C2 | 10.97%
- Cc1nn(C)cc1CN(C)Cc1cc2c(cc1OC(F)F)OCO2 | 5.075%
- Cc1noc(C)c1-c1cc(CCC2CN(CCC(N)=O)CCO2)ncn1 (configuration not stated) | -8.17%
- CCN1Cc2ccccc2CC2(CCN(CC(=O)O)CC2)C1=O.O=C(O)C(F)(F)F | 0.3466%
- CN1CCC(Oc2ccc(NC(=O)c3ccccc3)cc2)CC1 | 49.7% & 55.35% & 15.67%
- Cc1ccc2oc(C(=O)N3CCCC(n4cccn4)C3)cc2n1 (configuration not stated) | -4.787%
- Cc1nnc(-c2cccc(C#N)c2)n1C1CCCN(C(C)C)C1=O (configuration not stated) | -7.341%
- O=C(CO)N1CCCC2(CCN(c3ccsc3)C2=O)C1 (configuration not stated) | -4.601%
- Cc1ccc(-n2ncc(C(=O)N3CCCC3c3cnn(C)c3)c2C)cc1 (configuration not stated) | 10.26%
- COCc1nc(CN2CCC3(CCCO3)CCC2=O)no1 (configuration not stated) | -6.652%
- NCCn1nc(C2CCN(Cc3ccccc3)C2)c2nccnc21 (configuration not stated) | -3.897%
- O=C(O)C(F)(F)F.[H][C@@]12COC[C@]1(COc1cccnc1)CN(C(=O)COc1ccccc1)C2 | 11.26%
- Cc1cc(-c2ccccc2C(=O)O)nc(C2CCCN(C(C)C)C2)n1 (configuration not stated) | 5.596%
- Cn1cc(-c2cnc(N3CCOCC3)nc2)cc1C(=O)N1CCCC1 | -24.78% & -32.56%
- CC(NS(C)(=O)=O)C(=O)N1CCCN(Cc2cscn2)CC1 (configuration not stated) | 1.567%
- Cc1cc(C)n(CC2CCCN2CCC(=O)Nc2cc(C)on2)n1 (configuration not stated) | 5.543%
- CC(C)n1c2ccccc2c2c1cc(C(=O)O)n2C(=O)N(C)C | 15.48%
- CCCSc1ncccc1C(=O)NCc1ccc(N(C)C)cc1 | 1.908%
- COc1ccccc1NC(=O)NCc1nnc(SC)n1C | 0.9712%
- Cc1ccc(CC(=O)N2CCC(Nc3ccc(C)nn3)CC2)cn1 | -0.6159%
- Cc1cccc(N2CC3(COCCN(c4ccncn4)C3)OCC2=O)c1 (configuration not stated) | 1.959%
- O=S(=O)(CC1CCOCC1)NCc1ncc(-c2ccccc2)o1 | 2.781%
- Cc1cc(N2CCN(Cc3cn(C)nc3C)CC2)cc(C2CCNC2)n1.Cl (configuration not stated) | -9.189%
- Cc1cc(C(=O)N2CCCCC2c2nc(C)cs2)[nH]n1 (configuration not stated) | 2.126%
- Cc1c(C2=NS(=O)(=O)N(C)C(C(=O)Nc3ccc(Br)cc3)=C2)cnn1C | 5.435%
- COc1ccc(S(=O)(=O)NC(=O)c2c(C)noc2C(C)C)cc1OC | -7.987%
- Cc1cccc(-c2nc(CN3CCc4c(ncn4C)C3)no2)c1 | 33.52% & 33.98% & 27.72%
- Cc1ccccc1CCNC(=O)C1CC(=O)N(CC(F)(F)F)C1 (configuration not stated) | 9.12%
- Brc1cnc(NCCCOCC2CCOC2)nc1 (configuration not stated) | -12.99%
- CCOC(=O)CNC(=O)N1CCC(OC)c2ccccc2N(C)C(=O)C1 (configuration not stated) | -20.16%
- Cc1noc(C(C)C)c1C(=O)NCC(c1cccs1)N(C)C (configuration not stated) | -14.45% & 5.079% & 7.13%
- CN1CC(c2ccccc2)CC12CCN(C(=O)c1c(Cl)cnn1C)CC2 (configuration not stated) | 1.975%
- CC(C)c1nccn1C1CCCN(C(=O)c2ccc3nncn3c2)C1 (configuration not stated) | 11.13%
- NC(=O)C1CN(C(=O)Nc2cc(Cl)cc(Cl)c2)CCO1 (configuration not stated) | 34.71% & 37.32% & 40.74%
- O=C(CCn1ncc2ccccc21)N1CCCC(Cc2cccnc2)C1 (configuration not stated) | -9.205%